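Human melanoma cell lines in 1,536-well plates were treated with two drugs together for 72 h, then fixed, stained and imaged. The read-out is cell count (nuclei) in % of the DMSO control; lower values mean stronger growth inhibition or killing. Concentrations were fixed for each drug; these are the higher of two levels. No replicate spread is given; individual values may be noisy.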 An unselected part of the screen is shown. An entry leaves out what has no value listed here. A dash means that no value is listed here.

Compounds and concentrations:
U73122 (2 µM): COc1ccc2c(c1)CCC1C2CCC2(C)C(NCCCCCCN3C(=O)C=CC3=O)CCC12 (configuration not stated)
KU-0063794 (0.1 µM): COc1ccc(-c2ccc3c(N4CCOCC4)nc(N4C[C@@H](C)O[C@@H](C)C4)nc3n2)cc1CO
GW441756 (2 µM): Cn1cc(/C=C2\C(=O)Nc3cccnc32)c2ccccc21
perifosine (2 µM): CCCCCCCCCCCCCCCCCCOP(=O)([O-])OC1CC[N+](C)(C)CC1
ZM336372 (10 µM): Cc1ccc(NC(=O)c2cccc(N(C)C)c2)cc1NC(=O)c1ccc(O)cc1
STA-4783 (0.03 µM): CN(NC(=O)CC(=O)NN(C)C(=S)c1ccccc1)C(=S)c1ccccc1
RKI-983 (2 µM): C[C@@H](N)c1ccc(C(=O)Nc2ccnc3[nH]ccc23)cc1
GSK0660 (5 µM): COC(=O)c1sccc1S(=O)(=O)Nc1ccc(Nc2ccccc2)cc1OC
GW2580 (5 µM): COc1ccc(COc2ccc(Cc3cnc(N)nc3N)cc2OC)cc1
NVP-TAE684 (0.4 µM): COc1cc(N2CCC(N3CCN(C)CC3)CC2)ccc1Nc1ncc(Cl)c(Nc2ccccc2S(=O)(=O)C(C)C)n1

- U73122 + GSK0660 : A101D: 71.6
- ZM336372 + RKI-983 : A101D: 81.3
- GW2580 + U73122 : A101D: 59.0
- U73122 + perifosine : WM3619: 62.3; A101D: 68.1
- perifosine + STA-4783 : A101D: 79.3
- GW2580 + perifosine : WM3619: 129; A101D: 110
- GW2580 + RKI-983 : WM3619: 112; A101D: 71.9
- GW441756 + RKI-983 : WM3619: 84.2; A101D: 77.9
- KU-0063794 + RKI-983 : WM3619: 69.4; A101D: 67.5
- RKI-983 + NVP-TAE684 : WM3619: 73.0; A101D: 74.0
- NVP-TAE684 + GSK0660 : A101D: 78.3
- U73122 + GW441756 : A101D: 61.0
- NVP-TAE684 + GW441756 : A101D: 88.7
- KU-0063794 + GW2580 : A101D: 91.1
- perifosine + NVP-TAE684 : WM3619: 74.8; A101D: 76.7
- KU-0063794 + NVP-TAE684 : A101D: 74.0
- KU-0063794 + GSK0660 : A101D: 102
- perifosine + ZM336372 : A101D: 102
- perifosine + KU-0063794 : WM3619: 89.4; A101D: 76.2
- GW441756 + GSK0660 : A101D: 101
- NVP-TAE684 + GW2580 : A101D: 97.1
- RKI-983 + U73122 : WM3619: 35.2; A101D: 45.3
- GW441756 + KU-0063794 : A101D: 84.9
- GW441756 + GW2580 : A101D: 101
- GSK0660 + GW2580 : A101D: 119
- NVP-TAE684 + U73122 : A101D: 52.4
- GSK0660 + RKI-983 : WM3619: 105; A101D: 70.5
- GSK0660 + perifosine : WM3619: 69.6; A101D: 102

For reference, 2 entries once more:

| Pair | WM3619 | A101D |
|---|---|---|
| KU-0063794 + RKI-983 | 69.4 | 67.5 |
| NVP-TAE684 + U73122 | - | 52.4 |

Data from the primary screen of doi:10.1371/journal.pone.0140310, rounded.